Laboratory results published in PMC2671169.
Results are given in words; binding and its absence hold for the method and conditions named. Some entries that bind do so weakly or less than the wild type.

Target: Argonaute 2 (Ago2) (human (endogenous in HEK293)), Q9UKV8
Test: capture of RISC on immobilised oligonucleotides, Western blot; biotinylated 2′ FU, 2′ FC oligonucleotides complementary to the sense or antisense strand of the siRNA on Dynabeads M280, incubated with lysate of siRNA-transfected HEK293 cells (siRNA1 or siRNA-caspase9; with or without cotransfected Flag-TRBP) for 1 h at 25°C; 150 mM NaCl, 0.5% NP-40, 2 mM MgCl2, 2 mM CaCl2, 20 mM Tris pH 7.5; bound proteins blotted …
Conditions: remark: other sources report otherwise

binding: binds
B1: TAR RNA-binding protein (TRBP), Q15633 1-366 (protein)
chain: MSEEEQGSGTTTGCGLPSIEQMLAANPGKTPISLLQEYGTRIGKTPVYDLLKAEGQAHQPNFTFRVTVGDTSCTGQGPSKKAAKHKAAEVALKHLKGGSMLEPALEDSSSFSPLDSSLPEDIPVFTAAAAATPVPSVVLTRSPPMELQPPVSPQQSECNPVGALQELVVQKGWRLPEYTVTQESGPAHRKEFTMTCRVERFIEIGSGTSKKLAKRNAAAKMLLRVHTVPLDARDGNEVEPDDDHFSIGVGSRLDGLRNRGPGCTWDSLRNSVGEKILSLRSCSLGSLGALGPACCRVLSELSEEQAFHVSYLDIEELSLSGLCQCLVELSTQPATVCHGSATTREAARGEAARRALQYLKIMAGSK
